Experimental data from PMC4873228.
These are yes or no findings as the source states them, for the method shown. In cells and extracts the contact can be indirect. Some entries that bind do so weakly or less than the wild type. Sequences can lack the tags named with a protein.

T1: UBR::GFP (UBR domain of Ubr3, aa 222-292, with GFP at the carboxyl terminus) (Drosophila) (UniProt Q9W3M3)
T1 sequence: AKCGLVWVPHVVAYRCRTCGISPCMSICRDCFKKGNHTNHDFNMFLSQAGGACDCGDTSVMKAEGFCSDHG


Columns and labels:
[1] = target: T1, UBR::GFP (UBR domain of Ubr3, aa 222-292, with GFP at the carboxyl terminus) (Drosophila); test: co-IP; UBR::GFP or GFP alone precipitated with anti-GFP beads from lysates of transiently transfected S2 cells; blot with anti-Ubr3 antibody for endogenous Ubr3; lysis buffer 25 mM Tris-HCl pH 7.5, 150 mM NaCl, 1 mM EDTA, 1% NP-40, 5% glycerol, 1 mM DTT; beads overnight at 4°C
[2] = target: T1, UBR::GFP (UBR domain of Ubr3, aa 222-292, with GFP at the carboxyl terminus) (Drosophila); test: co-IP; S2 cells co-transfected with HA::Cos2 or its deletion constructs and GFP, UBR::GFP or Ubr3::GFP; lysate precipitated with anti-GFP agarose overnight at 4°C, blot anti-HA and anti-GFP; lysis buffer 25 mM Tris-HCl pH 7.5, 150 mM NaCl, 1 mM EDTA, 1% NP-40; Ubr3::GFP with HA::Cos2 also after Colchicine (1 ug/ml, 5 hours; interaction not affected) and with co-transfected Hh (interaction strongly increased)
[3] = target: Ubr3::GFP (full length Ubr3 with GFP at the carboxyl terminus) (Drosophila) (UniProt Q9W3M3); test: as above

binding [1] | binding [2] | binding [3] | Molecule
binds | – | – | endogenous Ubr3 full length protein (from UniProt Q9W3M3 1-2219) (enzyme)
– | binds | binds | HA::Cos2 (full length Costal 2) (protein, UniProt O16844 1-1201) MEIPIQVAVRIFPHRELKDLLRSFGPTEPKKDAQAVDEGADSKDSEAQVPAAEKDNPSISETDPNGNAEQDSAADSKTIPDANGNDSGQKDYPDSAYCVQAIPISASALGLPSALPGGDPMDSIAAGLIQVGPHTVPVTHALPSSSSQEQVYHQTVFPLITLFLEGFDASVVTYGQRGQGKSYTLYGNVQDPTLTDSTEGVVQLCVRDIFSHISLHPERTYAINVGFVEICGGDVCDLLGMGNIHCTNVDAVFHWLQVGLSARQSLPAHTLFTLTLEQQWVSKEGLLQHRLSTASFSDLCGTERCGDQPPGRPLDAGLCMLEQVISTLTDPGLMYGVNGNIPYGQTTLTTLLKDSFGGRAQTLVILCVSPLEEHLPETLGNLQFAFKVQCVRNFVIMNTYSDDNTMIVQPAEPVPESNSSAGPLSQAGPGDNFGLQFAASQWSKLVTNAEGLFSKLIDSKLITEVEKEQIEEWLFLKQECEECLSSTEAMRQQKQLVPILEAEEPEDVNSEAANSESPNSDNENDTDNESHRPDLDDKIESLMEEFRDKTDALILEKHAEYLSKHPKAVMQSQDREIEAQPPEENGDDRKVSIGSRRRSVQPGASLSTAELAMLNRVASQQPPPPIDPESVVDPLESSSGEGIRQAALAAAAATAPIEQLQKKLRKLVAEIEGKQRQLREIEETIQVKQNIIAELVKNSDTRSHAKQRFHKKRAKLEAECDKAKKQLGKALVQGRDQSEIERWTTIIGHLERRLEDLSSMKHIAGESGQKVKKLQQSVGESRKQADDLQKKLRKECKLRCQMEAELAKLRESRETGKELVKAQGSPEQQGRQLKAVQARITHLNHILREKSDNLEEQPGPEQQETLRHEIRNLRGTRDLLLEERCHLDRKLKRDKVLTQKEERKLLECDEAIEAIDAAIEFKNEMITGHRSIDTSDRIQREKGEQMLMARLNRLSTEEMRTLLYKYFTKVIDLRDSSRKLELQLVQLERERDAWEWKERVLSNAVRQARLEGERNAVLLQRQHEMKLTLMLRHMAEETSASSASYGERALAPACVAPPVQASSDFDYDHFYKGGGNPSKALIKAPKPMPTGSALDKYKDKEQRSGRNIFAKFHVLTRYASAAAAGSSGSTAEESTALIESTTTATATTTSTTTTGAVGKVKDKALVSFRPEQLKRLMPAPTATKVTRQKNKIIIQDASRRN
